The values that follow come from patent US4758552 (dated 1988).

A short description of data set [1]: general procedure: solution-phase peptide synthesis; azide fragment coupling; DCC/N-hydroxybenzotriazole; OPFP ester; DCC or DIC (sol).
Data set [2] is described as follows: Boc solid-phase peptide synthesis; azide fragment coupling; DCC/N-hydroxybenzotriazole; OPFP ester; DCC or DIC (sol). The settings on record: whole synthesis, resin weight gain.

In turn, Boc-Aa-Leu-Arg(NO2)-Pro-NHEt showed a step yield in data set [1] (coupling step) of 77.8% yield.

In data set [1] (late stage modification step), Boc-Aa-Leu-Arg-Pro-NHEt had a step yield of 82.5% yield.

Consider Boc-Aa-Leu-Gln-Pro-NHEt, for which, in data set [1] (coupling step), the step yield stood at 80% yield.

The substance Boc-Mab-Leu-Arg(NO2)-Pro-Gly-NH2 showed a step yield in data set [1] (coupling step) of 68% yield.

Take Boc-Mab-Leu-Arg-Pro-Gly-NH2: the step yield in data set [1] (late stage modification step) stood at 78.3%.

Consider “Glp-His(Tos)-Trp-Ser(oBzl)-Tyr(oBzl)-Aa-Leu-Arg(Tos)-Pro-Gly”, for which the step yield is recorded as 54% in data set [1] (purification step, run 1) and 61.0% in data set [1] (purification step, run 2).

On to “Glp-His(Tos)-Trp-Ser(oBzl)-Tyr(oBzl)-Aa-Leu-Arg(Tos)-Pro-Gly peptide resin”, for which the crude yield in data set [2] was determined as 65% as ΔW.

Take Glp-His-Trp-Ser-Tyr-N2 H3: in data set [1] (late stage modification step, two steps together), the step yield is 56.9% yield as calculated for two steps together.

For H-Aa-Leu-Arg-Pro-NHEt.(TFA)2, in data set [1] (late stage modification step), the step yield was 89.5% yield.

The substance H-Aa-Leu-Gln-Pro-NHEt.TFA had a step yield in data set [1] (late stage modification step) of 86%.

In the case of H-Mab-Leu-Arg-Pro-Gly-NH2.(TFA)2, the step yield in data set [1] (late stage modification step) stood at 91.5% yield.

Consider “[Aa^6, Gln^8, desGly^10 ]-gonadoliberin ethylamide”, for which the step yield in data set [1] (coupling step) is 52%.

In data set [1] (coupling step), “[Aa^6, desGly^10 ]-gonadoliberin ethylamide” gave a step yield of 57.3% yield.

Take [Mab^6 ]-gonadiliberin: in data set [1] (coupling step), the step yield is listed as 52%.
